# Laboratory results taken from ChEMBL document CHEMBL5376015, “Kinase inhibitor macrocycles: a perspective on limiting conformational flexibility when targeting the kinome with small molecules” (RSC Med Chem, 2024).
# Assay: physchem
# Settings: buffer, pH 7
compound,measurement,value
Cc1cnc2nc1-c1cccc(c1)COC/C=C/COCc1cc(ccc1OCCN1CCCC1)N2,solubility,> 150 µg/mL
